Experiment: In vivo pharmacokinetics after oral delivery (HPLC of plasma)
Protocol: Healthy mice weighing 30 g were kept in the primate facility with free access to food and water a day before the commencement of the experiment. The mice were divided into two groups (n = 5). […] Blood plasma was stored at −20 °C until further use.

O=C(O)c1cn(C2CC2)c2cc(N3CCNCC3)c(F)cc2c1=O [CIP, Ciprofloxacin]
C max (mice, oral): 54.50 ± 2.57 µg/mL | AUC(0-t) (mouse, in vivo, po): 211 ± 3.59 µg·h/mL | Tmax (mouse, in vivo, po): 1 ± 3.37 h | Cmax (mouse, in vivo, po, C max, mice): 54.3 µg/mL

Reference: PMC8146397 (Nanomaterials, 2021)
